The target of assay [1] is AR-FL as GST protein (GST pull-down of Figure 5G-H) (UniProt P10275). The experiment in a line: pull-down; GST pull-down: in vitro-translated HA- or His-tagged proteins incubated with GST proteins in the presence or absence of BCT; bound proteins detected by immunoblot with anti-HA or anti-His antibody; only the target purified. For orientation: A western blot detects proteins with antibodies after separation by electrophoresis.

Amino acid sequences for entries named in this document (tags omitted). A change or cut given only in a name is not applied to a line headed by its entry. Chains listed by the source or under a name are the forms on record and can include a tag or linker.
UniProt P10275: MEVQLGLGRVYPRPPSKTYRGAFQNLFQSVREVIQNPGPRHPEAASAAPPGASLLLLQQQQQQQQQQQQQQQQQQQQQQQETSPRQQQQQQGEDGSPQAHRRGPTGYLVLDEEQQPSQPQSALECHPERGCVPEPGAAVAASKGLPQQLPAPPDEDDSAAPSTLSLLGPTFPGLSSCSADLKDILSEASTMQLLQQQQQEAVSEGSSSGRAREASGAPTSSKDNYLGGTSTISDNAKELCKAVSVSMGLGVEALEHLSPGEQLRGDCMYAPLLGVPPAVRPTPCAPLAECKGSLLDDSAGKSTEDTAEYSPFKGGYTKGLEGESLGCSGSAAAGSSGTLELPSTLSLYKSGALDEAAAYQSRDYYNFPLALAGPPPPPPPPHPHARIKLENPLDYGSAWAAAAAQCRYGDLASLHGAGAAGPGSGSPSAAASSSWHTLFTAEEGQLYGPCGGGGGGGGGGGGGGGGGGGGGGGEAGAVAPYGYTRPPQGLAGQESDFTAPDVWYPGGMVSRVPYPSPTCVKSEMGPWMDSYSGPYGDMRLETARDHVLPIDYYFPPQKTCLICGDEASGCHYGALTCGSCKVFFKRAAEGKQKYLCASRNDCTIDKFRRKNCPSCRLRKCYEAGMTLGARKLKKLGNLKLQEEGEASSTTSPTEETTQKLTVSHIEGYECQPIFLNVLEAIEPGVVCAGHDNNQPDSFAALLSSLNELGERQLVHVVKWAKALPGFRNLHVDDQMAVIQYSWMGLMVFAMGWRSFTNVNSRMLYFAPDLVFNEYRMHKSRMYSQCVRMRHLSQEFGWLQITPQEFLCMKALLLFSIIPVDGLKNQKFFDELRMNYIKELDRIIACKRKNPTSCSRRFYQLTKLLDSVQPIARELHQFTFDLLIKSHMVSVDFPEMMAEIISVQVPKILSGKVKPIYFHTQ
AR-V7 as GST protein (GST pull-down of Figure 5G-H) (P10275, form named): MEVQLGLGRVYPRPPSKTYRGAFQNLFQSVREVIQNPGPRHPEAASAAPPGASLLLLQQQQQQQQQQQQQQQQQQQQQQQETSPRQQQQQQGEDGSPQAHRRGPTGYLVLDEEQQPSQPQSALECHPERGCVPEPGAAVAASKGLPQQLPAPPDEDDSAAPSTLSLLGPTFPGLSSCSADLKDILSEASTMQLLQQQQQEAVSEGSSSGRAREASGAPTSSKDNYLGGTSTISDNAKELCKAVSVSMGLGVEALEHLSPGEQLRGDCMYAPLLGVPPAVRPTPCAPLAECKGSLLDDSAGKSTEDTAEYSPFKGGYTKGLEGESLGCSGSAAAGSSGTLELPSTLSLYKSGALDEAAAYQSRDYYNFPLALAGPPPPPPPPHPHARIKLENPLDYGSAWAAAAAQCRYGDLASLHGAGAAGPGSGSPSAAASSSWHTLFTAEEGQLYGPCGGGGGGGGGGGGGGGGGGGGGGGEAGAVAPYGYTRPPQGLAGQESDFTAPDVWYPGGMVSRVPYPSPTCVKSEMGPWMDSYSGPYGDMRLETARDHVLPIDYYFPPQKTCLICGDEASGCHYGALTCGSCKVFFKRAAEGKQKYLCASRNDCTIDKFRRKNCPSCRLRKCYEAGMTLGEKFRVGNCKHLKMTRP
UniProt Q9UNE7: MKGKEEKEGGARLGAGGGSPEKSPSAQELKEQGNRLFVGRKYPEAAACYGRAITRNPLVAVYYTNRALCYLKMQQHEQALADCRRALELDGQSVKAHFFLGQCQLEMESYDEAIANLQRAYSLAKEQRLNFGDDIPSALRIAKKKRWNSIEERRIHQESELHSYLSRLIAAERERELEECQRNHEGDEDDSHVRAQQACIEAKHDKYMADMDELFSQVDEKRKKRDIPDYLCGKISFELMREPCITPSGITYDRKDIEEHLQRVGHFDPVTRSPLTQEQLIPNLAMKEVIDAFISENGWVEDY

In assay [2] the target is AR-V7 as GST protein (GST pull-down of Figure 5G-H) (UniProt P10275). The assay is described as above.

Results are given in words; binding and its absence hold for the method and conditions named. In cells and extracts the contact can be indirect. Some binding calls cover weakened binding; strength is not graded here.

Turning to “His-CHIP, in vitro-translated (from UniProt Q9UNE7 1-303)”, the binding result in assay [1] and in assay [2] was “binds” throughout.

These data come from paper PMC7738850.
